The other results are listed elsewhere or left out.
Legend:
Experiment in all cases: log2 fold change, soluble protein after heating vs DMSO (PISA); higher = thermal stabilisation; K562 lysate, 10 uM; active = over 0.2 and 3.5 SD of the protein, either way, in both replicates (recomputed)
erlotinib = compound: C#Cc1cccc(Nc2ncnc3cc(OCCOC)c(OCCOC)cc23)c1 [erlotinib]
Procedure, shortened: (§1)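 Quantification was by TMTpro 16plex LC-MS/MS with equalised channel sums, applied to the supernatant after 21,000xg for 90 min. Samples were crude K562 extract at 1 mg/mL protein in PBS pH 7.4 with 1 mM MgCl2, treated with 10 μM compound for 30 min, heated for 3 min across 48°C-58°C, pooled and brought to 0.5% NP-40 at 4°C. Values are log-two fold changes in thermal stability relative to solvent controls, from duplicates.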

By UniProt entry, the sequences of proteins in these tests, tags left out. Where a name states a change or a piece, a line headed by the entry shows the natural chain unless it says otherwise.
UniProt P06756, whole entry, looked up: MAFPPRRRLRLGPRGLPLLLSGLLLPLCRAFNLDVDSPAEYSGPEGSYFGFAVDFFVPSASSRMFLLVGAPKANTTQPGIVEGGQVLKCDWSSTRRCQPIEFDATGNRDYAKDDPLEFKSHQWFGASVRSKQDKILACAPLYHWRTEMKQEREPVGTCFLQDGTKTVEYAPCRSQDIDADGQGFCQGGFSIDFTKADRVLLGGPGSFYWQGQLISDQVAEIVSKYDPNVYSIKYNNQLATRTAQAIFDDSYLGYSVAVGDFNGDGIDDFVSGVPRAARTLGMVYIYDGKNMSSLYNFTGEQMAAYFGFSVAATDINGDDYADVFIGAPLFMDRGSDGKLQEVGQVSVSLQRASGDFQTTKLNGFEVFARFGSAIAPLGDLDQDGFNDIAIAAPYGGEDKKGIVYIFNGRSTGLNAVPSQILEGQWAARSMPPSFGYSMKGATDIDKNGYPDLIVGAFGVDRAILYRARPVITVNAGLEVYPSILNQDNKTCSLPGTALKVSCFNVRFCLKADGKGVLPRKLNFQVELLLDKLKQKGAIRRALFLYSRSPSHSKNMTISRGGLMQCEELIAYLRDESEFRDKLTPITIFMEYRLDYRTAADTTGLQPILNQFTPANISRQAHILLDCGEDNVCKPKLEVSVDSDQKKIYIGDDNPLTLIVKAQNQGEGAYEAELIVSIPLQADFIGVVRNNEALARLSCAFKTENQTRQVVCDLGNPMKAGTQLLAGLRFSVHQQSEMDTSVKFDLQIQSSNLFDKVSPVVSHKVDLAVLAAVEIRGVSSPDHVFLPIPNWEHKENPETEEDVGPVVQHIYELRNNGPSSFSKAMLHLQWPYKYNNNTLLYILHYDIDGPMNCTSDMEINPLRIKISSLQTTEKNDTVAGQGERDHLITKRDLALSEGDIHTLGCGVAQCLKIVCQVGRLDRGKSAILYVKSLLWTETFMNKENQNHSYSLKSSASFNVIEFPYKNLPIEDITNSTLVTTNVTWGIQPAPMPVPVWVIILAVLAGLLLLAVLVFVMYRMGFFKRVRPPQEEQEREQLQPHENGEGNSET
UniProt P17535: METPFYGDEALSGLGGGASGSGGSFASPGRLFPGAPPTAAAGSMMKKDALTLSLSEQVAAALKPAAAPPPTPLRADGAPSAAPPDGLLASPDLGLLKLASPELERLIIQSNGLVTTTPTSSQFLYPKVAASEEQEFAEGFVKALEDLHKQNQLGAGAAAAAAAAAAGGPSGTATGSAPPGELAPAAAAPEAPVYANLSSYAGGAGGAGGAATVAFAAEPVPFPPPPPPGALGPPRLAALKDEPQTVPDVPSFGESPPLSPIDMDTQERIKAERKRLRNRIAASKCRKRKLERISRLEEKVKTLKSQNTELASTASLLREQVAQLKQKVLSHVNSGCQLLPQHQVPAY
UniProt Q9UK76: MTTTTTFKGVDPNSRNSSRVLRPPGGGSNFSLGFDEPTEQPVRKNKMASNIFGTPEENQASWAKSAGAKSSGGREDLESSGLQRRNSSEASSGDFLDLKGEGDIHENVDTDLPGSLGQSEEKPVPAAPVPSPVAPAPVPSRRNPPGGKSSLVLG
UniProt P05161, whole entry, looked up: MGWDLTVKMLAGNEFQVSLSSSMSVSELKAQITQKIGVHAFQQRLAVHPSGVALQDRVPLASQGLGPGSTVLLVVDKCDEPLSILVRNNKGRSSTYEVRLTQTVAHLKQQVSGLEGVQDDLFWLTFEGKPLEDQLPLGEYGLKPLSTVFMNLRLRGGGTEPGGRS
UniProt Q8WVZ9: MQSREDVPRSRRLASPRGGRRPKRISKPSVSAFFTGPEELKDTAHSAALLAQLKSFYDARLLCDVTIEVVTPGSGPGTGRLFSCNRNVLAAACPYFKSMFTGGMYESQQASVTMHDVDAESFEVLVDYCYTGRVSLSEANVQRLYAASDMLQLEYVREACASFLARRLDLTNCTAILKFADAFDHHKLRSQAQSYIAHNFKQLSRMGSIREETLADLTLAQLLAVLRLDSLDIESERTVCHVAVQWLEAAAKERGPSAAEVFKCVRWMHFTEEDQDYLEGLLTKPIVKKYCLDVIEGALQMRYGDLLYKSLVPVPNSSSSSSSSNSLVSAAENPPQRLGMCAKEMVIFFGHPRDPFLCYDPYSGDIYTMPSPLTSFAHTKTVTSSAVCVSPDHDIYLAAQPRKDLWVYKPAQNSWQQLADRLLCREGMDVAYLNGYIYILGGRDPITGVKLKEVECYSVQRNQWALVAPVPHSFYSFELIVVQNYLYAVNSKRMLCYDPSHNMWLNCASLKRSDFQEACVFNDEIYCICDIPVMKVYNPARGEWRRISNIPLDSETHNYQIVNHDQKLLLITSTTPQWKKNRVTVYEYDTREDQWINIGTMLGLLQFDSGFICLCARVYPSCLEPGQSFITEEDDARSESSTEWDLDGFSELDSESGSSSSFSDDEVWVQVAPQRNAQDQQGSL
UniProt P18084: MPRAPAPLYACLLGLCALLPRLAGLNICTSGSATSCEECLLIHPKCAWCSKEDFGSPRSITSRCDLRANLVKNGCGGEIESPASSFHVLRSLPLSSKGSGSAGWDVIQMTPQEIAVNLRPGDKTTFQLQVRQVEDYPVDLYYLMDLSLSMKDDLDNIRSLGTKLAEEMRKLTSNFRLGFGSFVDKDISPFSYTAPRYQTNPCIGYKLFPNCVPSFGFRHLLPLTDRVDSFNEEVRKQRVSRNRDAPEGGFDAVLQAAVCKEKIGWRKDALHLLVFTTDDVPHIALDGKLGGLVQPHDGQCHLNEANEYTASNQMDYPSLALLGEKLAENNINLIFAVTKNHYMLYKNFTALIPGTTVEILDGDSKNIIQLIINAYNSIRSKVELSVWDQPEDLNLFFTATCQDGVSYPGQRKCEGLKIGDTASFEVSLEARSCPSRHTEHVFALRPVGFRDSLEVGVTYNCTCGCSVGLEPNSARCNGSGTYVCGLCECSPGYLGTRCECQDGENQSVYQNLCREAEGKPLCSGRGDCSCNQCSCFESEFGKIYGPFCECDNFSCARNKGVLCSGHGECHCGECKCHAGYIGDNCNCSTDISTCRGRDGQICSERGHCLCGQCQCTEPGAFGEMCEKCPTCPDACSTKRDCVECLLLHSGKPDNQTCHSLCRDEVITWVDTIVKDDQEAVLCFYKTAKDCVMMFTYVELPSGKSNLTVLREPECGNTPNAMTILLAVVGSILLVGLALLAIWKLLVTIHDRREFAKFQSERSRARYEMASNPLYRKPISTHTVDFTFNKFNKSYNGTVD
UniProt Q8TEX9: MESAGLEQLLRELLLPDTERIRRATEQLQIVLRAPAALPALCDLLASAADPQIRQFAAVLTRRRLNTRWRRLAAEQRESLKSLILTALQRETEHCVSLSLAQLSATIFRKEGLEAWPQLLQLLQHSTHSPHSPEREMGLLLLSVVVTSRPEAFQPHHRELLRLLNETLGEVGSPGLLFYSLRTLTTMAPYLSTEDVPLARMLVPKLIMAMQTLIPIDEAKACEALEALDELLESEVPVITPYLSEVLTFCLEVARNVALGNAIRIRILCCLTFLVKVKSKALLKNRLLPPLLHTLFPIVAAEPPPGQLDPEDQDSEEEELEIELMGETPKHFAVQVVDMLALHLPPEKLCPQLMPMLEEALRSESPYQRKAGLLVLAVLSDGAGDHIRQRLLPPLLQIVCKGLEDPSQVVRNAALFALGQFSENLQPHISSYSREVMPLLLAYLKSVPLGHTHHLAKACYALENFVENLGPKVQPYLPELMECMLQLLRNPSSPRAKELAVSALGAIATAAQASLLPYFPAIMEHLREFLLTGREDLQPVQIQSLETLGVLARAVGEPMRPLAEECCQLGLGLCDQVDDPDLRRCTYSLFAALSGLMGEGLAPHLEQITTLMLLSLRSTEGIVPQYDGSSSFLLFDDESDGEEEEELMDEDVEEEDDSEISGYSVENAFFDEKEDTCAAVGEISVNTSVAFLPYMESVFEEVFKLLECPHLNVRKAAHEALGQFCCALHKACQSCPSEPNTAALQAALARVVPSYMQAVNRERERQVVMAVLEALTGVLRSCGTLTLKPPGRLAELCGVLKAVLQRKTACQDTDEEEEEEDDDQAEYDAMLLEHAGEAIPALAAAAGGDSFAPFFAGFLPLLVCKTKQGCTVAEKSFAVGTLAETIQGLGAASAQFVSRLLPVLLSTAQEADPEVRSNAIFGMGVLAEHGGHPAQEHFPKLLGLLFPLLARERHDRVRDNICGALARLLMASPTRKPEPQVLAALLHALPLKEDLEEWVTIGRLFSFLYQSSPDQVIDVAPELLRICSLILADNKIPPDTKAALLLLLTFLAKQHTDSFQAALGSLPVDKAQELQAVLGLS
UniProt Q6DN90: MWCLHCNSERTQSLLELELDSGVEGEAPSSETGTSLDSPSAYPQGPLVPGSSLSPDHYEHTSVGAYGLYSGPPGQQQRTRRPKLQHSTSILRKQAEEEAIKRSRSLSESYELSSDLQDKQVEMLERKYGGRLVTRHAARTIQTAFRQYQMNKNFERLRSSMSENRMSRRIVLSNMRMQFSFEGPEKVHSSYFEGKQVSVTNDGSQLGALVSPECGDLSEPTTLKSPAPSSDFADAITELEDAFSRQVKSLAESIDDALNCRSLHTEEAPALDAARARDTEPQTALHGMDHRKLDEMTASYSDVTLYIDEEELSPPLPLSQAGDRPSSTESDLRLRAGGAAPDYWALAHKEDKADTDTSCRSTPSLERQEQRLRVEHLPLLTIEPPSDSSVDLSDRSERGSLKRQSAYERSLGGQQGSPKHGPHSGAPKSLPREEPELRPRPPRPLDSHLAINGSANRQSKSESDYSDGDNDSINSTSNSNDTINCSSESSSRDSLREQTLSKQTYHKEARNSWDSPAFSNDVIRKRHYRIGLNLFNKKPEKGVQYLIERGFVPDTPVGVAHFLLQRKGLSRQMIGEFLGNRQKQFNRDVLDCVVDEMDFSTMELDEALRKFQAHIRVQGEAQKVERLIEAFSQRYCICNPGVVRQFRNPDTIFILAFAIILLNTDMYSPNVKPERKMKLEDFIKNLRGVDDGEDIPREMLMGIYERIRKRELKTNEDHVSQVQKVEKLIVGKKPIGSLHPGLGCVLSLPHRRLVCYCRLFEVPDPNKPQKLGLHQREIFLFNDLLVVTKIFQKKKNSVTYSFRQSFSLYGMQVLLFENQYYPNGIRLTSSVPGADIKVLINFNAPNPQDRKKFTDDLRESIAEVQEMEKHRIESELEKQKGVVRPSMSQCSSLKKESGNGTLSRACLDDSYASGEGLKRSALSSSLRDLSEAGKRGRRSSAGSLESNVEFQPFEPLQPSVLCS
UniProt Q75QN2, whole entry, looked up: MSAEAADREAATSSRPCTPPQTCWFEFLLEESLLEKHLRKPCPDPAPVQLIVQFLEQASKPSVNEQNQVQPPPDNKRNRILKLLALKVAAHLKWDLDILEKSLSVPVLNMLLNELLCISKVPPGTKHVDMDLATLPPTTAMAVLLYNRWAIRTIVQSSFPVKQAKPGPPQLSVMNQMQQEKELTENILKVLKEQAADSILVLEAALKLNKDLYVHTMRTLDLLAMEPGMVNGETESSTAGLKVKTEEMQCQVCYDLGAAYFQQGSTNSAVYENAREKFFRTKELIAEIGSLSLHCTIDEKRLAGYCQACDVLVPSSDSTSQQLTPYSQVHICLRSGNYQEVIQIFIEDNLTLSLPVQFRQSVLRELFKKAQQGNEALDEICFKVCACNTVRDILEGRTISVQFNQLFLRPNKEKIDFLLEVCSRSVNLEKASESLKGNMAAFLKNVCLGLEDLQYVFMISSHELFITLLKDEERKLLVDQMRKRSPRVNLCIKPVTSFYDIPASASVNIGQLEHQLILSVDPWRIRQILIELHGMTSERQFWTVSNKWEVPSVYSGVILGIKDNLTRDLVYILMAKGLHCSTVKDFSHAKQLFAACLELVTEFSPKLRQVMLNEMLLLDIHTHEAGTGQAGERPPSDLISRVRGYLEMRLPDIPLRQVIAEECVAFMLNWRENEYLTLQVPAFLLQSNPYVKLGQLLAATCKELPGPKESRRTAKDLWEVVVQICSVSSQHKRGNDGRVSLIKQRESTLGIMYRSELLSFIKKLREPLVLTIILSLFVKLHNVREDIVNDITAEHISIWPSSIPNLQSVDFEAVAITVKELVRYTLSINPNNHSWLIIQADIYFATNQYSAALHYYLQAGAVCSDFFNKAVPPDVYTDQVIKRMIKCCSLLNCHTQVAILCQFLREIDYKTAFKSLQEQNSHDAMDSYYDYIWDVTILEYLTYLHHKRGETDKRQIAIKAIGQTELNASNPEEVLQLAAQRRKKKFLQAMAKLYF
UniProt Q9H3F6: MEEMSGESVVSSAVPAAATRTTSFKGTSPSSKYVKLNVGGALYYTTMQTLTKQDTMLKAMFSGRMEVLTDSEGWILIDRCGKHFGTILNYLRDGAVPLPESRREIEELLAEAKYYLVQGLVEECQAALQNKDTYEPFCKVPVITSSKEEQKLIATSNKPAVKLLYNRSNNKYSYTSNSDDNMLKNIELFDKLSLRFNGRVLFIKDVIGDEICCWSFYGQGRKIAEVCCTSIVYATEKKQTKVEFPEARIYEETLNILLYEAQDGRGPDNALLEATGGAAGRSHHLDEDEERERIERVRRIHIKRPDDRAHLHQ

[1] = compound: C/C(=N\NC(=O)C1=CC(=CC=C1)S(=O)(=O)N2CCOCC2)/C3=C(C=CC(=C3)Cl)O
Procedure, shortened: as §1

[2] = compound: C1=CC(=CC=C1C2=NC3=C(N2)C=C(C=C3)C(=O)N)OC4=CC=C(C=C4)Cl
Procedure, shortened: as §1

[3] = compound: C1=CC2=C(C=CC(=C2)/C=C\3/C(=O)NC(=NCC4=CC=CS4)S3)N=C1
Procedure, shortened: as §1

[4] = compound: C1=CC2=NC=CN=C2C=C1/C=C/3\C(=O)NC(=O)S3
Procedure, shortened: as §1

[5] = compound: C1=CC=C(C=C1)C2=NC(=C(N2)C3=CC=NC=C3)C4=CC(=C(C=C4)Cl)O
Procedure, shortened: as §1

[6] = compound: C1=CC=C2C(=C1)C3=NNC4=CC=CC(=C43)C2=O
Procedure, shortened: as §1

[7] = compound: C1CCN(C1)C(=O)NC2=CC=CC(=C2)NC3=NC=C(C(=N3)NCCC4=CN=CN4)Br
Procedure, shortened: as §1

[8] = compound: C1CN(CCC1(CC2=CC=C(C=C2)Cl)N)C3=NC=NC4=C3C=CN4
Procedure, shortened: as §1

IRAK-1-4 Inhibitor I = compound: C1COCCN1CCN2C3=CC=CC=C3N=C2NC(=O)C4=CC(=CC=C4)[N+](=O)[O-] [IRAK-1-4 Inhibitor I]
Procedure, shortened: as §1

Measured: log2 fold change

ITGAV (UniProt P06756)
inactive: erlotinib -0.025 | [1] -0.034 | [2] 0.032 | [3] 0.006 | [4] -0.038 | [5] -0.024 | [6] -0.06 | [7] -0.021 | [8] 0.018 | IRAK-1-4 Inhibitor I 0.031

JUND (UniProt P17535)
inactive: erlotinib -0.017 | [1] -0.083 | [2] -0.012 | [3] 0 | [4] -0.008 | [5] -0.053 | [6] -0.04 | [7] 0.007 | [8] 0.012 | IRAK-1-4 Inhibitor I 0.024

JPT1 (UniProt Q9UK76)
inactive: erlotinib 0 | [1] -0.01 | [2] 0.03 | [3] -0.001 | [4] -0.018 | [5] 0.004 | [6] 0.003 | [7] 0.008 | [8] 0.034 | IRAK-1-4 Inhibitor I 0.011

INTS2 (UniProt Q9H0H0)
inactive: erlotinib 0.124 | [1] 0.161 | [2] 0 | [3] 0.109 | [4] -0.049 | [5] -0.01 | [6] 0.048 | [7] -0.036 | [8] 0.066 | IRAK-1-4 Inhibitor I 0.053

ISG15 (UniProt P05161)
inactive: erlotinib -0.011 | [1] -0.204 | [2] 0.107 | [3] 0.012 | [4] -0.025 | [5] -0.031 | [6] -0.019 | [7] -0.019 | [8] 0.024 | IRAK-1-4 Inhibitor I -0.029

KBTBD7 (UniProt Q8WVZ9)
inactive: erlotinib -0.037 | [1] -0.238 | [2] -0.085 | [3] -0.011 | [4] 0.155 | [5] -0.044 | [6] -0.005 | [7] -0.075 | [8] -0.047 | IRAK-1-4 Inhibitor I 0.034

ITGB5 (UniProt P18084)
inactive: erlotinib -0.015 | [1] -0.07 | [2] 0.022 | [3] -0.051 | [4] -0.012 | [5] -0.028 | [6] -0.038 | [7] 0.027 | [8] -0.024 | IRAK-1-4 Inhibitor I 0.005

IRF3 (UniProt Q14653)
inactive: erlotinib 0.046 | [1] -0.003 | [2] 0.007 | [3] -0.029 | [4] 0.034 | [5] 0.002 | [6] 0 | [7] 0.002 | [8] 0.013 | IRAK-1-4 Inhibitor I 0.032

IPO4 isoform 2 (UniProt Q8TEX9)
inactive: erlotinib 0.013 | [1] -0.012 | [2] 0.002 | [3] 0.007 | [4] 0.041 | [5] -0.045 | [6] -0.008 | [7] -0.001 | [8] 0.024 | IRAK-1-4 Inhibitor I 0.029

IQSEC1 (UniProt Q6DN90)
inactive: erlotinib 0.024 | [1] 0.009 | [2] 0.03 | [3] 0.099 | [4] -0.064 | [5] -0.052 | [6] -0.101 | [7] -0.013 | [8] -0.082 | IRAK-1-4 Inhibitor I 0.005

Two neighbouring entries already listed, quoted:
INTS2 (UniProt Q9H0H0)
inactive: erlotinib 0.124 | [1] 0.161 | [2] 0 | [3] 0.109 | [4] -0.049 | [5] -0.01 | [6] 0.048 | [7] -0.036 | [8] 0.066 | IRAK-1-4 Inhibitor I 0.053

ISG15 (UniProt P05161)
inactive: erlotinib -0.011 | [1] -0.204 | [2] 0.107 | [3] 0.012 | [4] -0.025 | [5] -0.031 | [6] -0.019 | [7] -0.019 | [8] 0.024 | IRAK-1-4 Inhibitor I -0.029

Later entries:

IST1 (UniProt P53990)
inactive: erlotinib -0.004 | [1] 0.044 | [2] -0.004 | [3] -0.007 | [4] -0.001 | [5] -0.003 | [6] -0.004 | [7] 0.003 | [8] 0.002 | IRAK-1-4 Inhibitor I -0.009

INTS8 (UniProt Q75QN2)
inactive: erlotinib -0.002 | [1] 0.043 | [2] -0.051 | [3] 0.02 | [4] -0.048 | [5] 0.037 | [6] -0.004 | [7] 0.066 | [8] -0.035 | IRAK-1-4 Inhibitor I 0.015

KCTD10 (UniProt Q9H3F6)
inactive: erlotinib 0.027 | [1] 0.016 | [2] 0.059 | [3] -0.019 | [4] -0.09 | [5] 0.012 | [6] 0.023 | [7] -0.018 | [8] 0.052 | IRAK-1-4 Inhibitor I -0.004

JPT2 isoform 3 (UniProt Q9H910)
inactive: erlotinib -0.002 | [1] -0.006 | [2] 0.096 | [3] -0.02 | [4] -0.012 | [5] 0.008 | [6] -0.024 | [7] -0.004 | [8] -0.008 | IRAK-1-4 Inhibitor I 0.021
